Key:
[1] = Binding to polystyrene assay tubes (assay blank)
[2] = Free-T4 assay of serum samples diluted with water or buffer (independence of dilution); parameters: species or system human; details: assay of European Patent Specification No. 0026 103, compound as labelled tracer

SMILES | binding to assay tubes [1] | free-T4 concentration unaffected by dilution of the serum sample [2]
COC(=O)[C@H](Cc1cc(I)c(Oc2cc(I)c(O)c(I)c2)c(I)c1)NC(C)=O [N-Acetyl-thyroxine-methyl ester, N-acetyl-thyroxine-methyl ester, reference compound] | binds significantly to polystyrene assay tubes | only approximately true
O=C(O)CN(CCN(CC(=O)O)CC(=O)NC(Cc1cc(I)c(Oc2cc(I)c(O)c(I)c2)c(I)c1)C(=O)O)CC(=O)O (stereo not shown) [T4.EDTA, 1-{3',5'-di-iodo-4' (3",5"-di-iodo-4"-Hydroxyphenoxy)phenyl} 2-carboxy-6,9-dicarboxymethyl-4-oxo-3,6,9,-triazaundecan-11-oic acid] | no significant tendency to bind to assay tubes | much more accurately true

Reference: EP0073865B1, “Derivatives of iodothyronine compounds and their use in an assay for the free iodothyronine compounds” (AMERSHAM INTERNATIONAL plc, priority 1981, dated 1983)
